Test results published in article PMC7819943, “Rice protein-binding microarrays: a tool to detect cis-acting elements near promoter regions in rice”.
The other results are listed elsewhere or left out.

Chains of the proteins cited; added tags and fusions are not shown.
UniProt Q0JBA9, entry or part of it: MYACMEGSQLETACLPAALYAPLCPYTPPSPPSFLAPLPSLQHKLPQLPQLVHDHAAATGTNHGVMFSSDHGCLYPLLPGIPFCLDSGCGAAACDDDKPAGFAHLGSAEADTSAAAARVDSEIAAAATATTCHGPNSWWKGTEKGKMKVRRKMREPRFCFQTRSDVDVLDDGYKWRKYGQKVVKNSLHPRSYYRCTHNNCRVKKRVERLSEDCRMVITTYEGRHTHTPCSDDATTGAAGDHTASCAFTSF

Target: OsWRKY34 (Oryza sativa, UniProt Q0JBA9 1-250)
Test: protein-binding microarray (RPBM); PBS, 2% BSA, 51.3 ng/ul salmon testes DNA, 50 uM zinc acetate, 200 nM TF, 25 C, 1 h; high values mean tight binding
Details: protein: recombinant; tags: N-terminal polyhistidine and DsRed monomer fusion (pET32a); label: CyDye5-dUTP incorporated in the synthesized complementary strand; 3' TTTTT single-stranded linker to array surface; dsDNA, one strand shown
Procedure, shortened: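 For the binding signal, per-feature fluorescence intensity was read in arbitrary units on an Axon 4000B scanner. Before scanning, a 2% BSA-blocked custom Agilent array made double-stranded with Cy5-dUTP was washed after 1 h at 25 °C with 200 nM protein and 50 µM zinc acetate. The proteins were Ni–NTA-purified transcription factors with N-terminal polyhistidine and DsRed fusions, expressed in E. coli BL21-CodonPlus.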

Sequence	binding signal
CTCTCGCGTTTCTTTTGCTGGATTGGGGCGTTCTTGGGAGCGGAGTCACCTAGTGCAG	14500 fluorescence intensity (a.u.)
AATTGCGTATTCTACTCTATCTTTGTCAAATCACTCCACGCGGAGTCACCTAGTGCAG	9120 fluorescence intensity (a.u.)
ATTTCTGCAGACCCATTTTGCTTTTGAAACACTGCTGATTCGGAGTCACCTAGTGCAG	9790 fluorescence intensity (a.u.)
GCCTCATCTTTTCATTTATTCTTATGCTTATCAACCAAAACGGAGTCACCTAGTGCAG	16100 fluorescence intensity (a.u.)
TGACTTTCTCGGATTTAATGCGTGACTTTTCATTCTTCCACGGAGTCACCTAGTGCAG	10100 fluorescence intensity (a.u.)
TTCACTTTGGTCCAGGTTTTCTTACCTTCTACTCCCTCCGCGGAGTCACCTAGTGCAG	11400 fluorescence intensity (a.u.)
CACTTCTGCACACTTCCACGGTAACATGTTTTACGGTTTTCGGAGTCACCTAGTGCAG	12100 fluorescence intensity (a.u.)
CCCGCGTCAGCCCCGCCATCACCGGTCCATCGCCGCCCGCCGGAGTCACCTAGTGCAG	9830 fluorescence intensity (a.u.)
ACTTTGGCACATTTCCATTTACCTGAGCCTACTATTCAAACGGAGTCACCTAGTGCAG	9740 fluorescence intensity (a.u.)
GCTCGCACGTACGCTTCCTTCCGCTTGATCTGCTGCCAACCGGAGTCACCTAGTGCAG	11100 fluorescence intensity (a.u.)
GTCGATTTGTTCTCATAAAATTTCCTCTTTTTTGTTTGTTCGGAGTCACCTAGTGCAG	15200 fluorescence intensity (a.u.)
GAATATTTTCGGGTGGCATATCCTCTGAAGCTTCTGCAGCCGGAGTCACCTAGTGCAG	8470 fluorescence intensity (a.u.)
ACATGTTCGTTTTTCTATTTCATTCTGAATGGGTTGTATTCGGAGTCACCTAGTGCAG	9700 fluorescence intensity (a.u.)
TATAGGTATTCACTACCTTATCATTTATTCATACCTTGTTCGGAGTCACCTAGTGCAG	8060 fluorescence intensity (a.u.)
CGCTCCGCCCACCACCCGCTGCCGCTTCATTTCACGCTGCCGGAGTCACCTAGTGCAG	9230 fluorescence intensity (a.u.)
CCTTTTTTTTATATATACGTTGATATTATTTGTCCTTTTTCGGAGTCACCTAGTGCAG	10000 fluorescence intensity (a.u.)
CTCGTCTCTTGCCGTCTTTTGTCCGCAAGTCTCGTGCTCTCGGAGTCACCTAGTGCAG	8750 fluorescence intensity (a.u.)
CTCCTTTTCAATACCTGGGTAGGGGTTGGTAATTGGCAGGCGGAGTCACCTAGTGCAG	10400 fluorescence intensity (a.u.)
GCCCATGTGAAAGACCAACGGATAACTCCAGTTTTTGTTTCGGAGTCACCTAGTGCAG	9330 fluorescence intensity (a.u.)
CTTACTACCTCCGTATTTTAGTGTATGATGCCGTTGACTTCGGAGTCACCTAGTGCAG	14500 fluorescence intensity (a.u.)
CCGCACATCGCGTTCGTTCCGCTGCTTCCGCCGCATCCTGCGGAGTCACCTAGTGCAG	14700 fluorescence intensity (a.u.)

An excerpt of these results, as a markdown table:

| Sequence | binding signal |
| --- | --- |
| ATTTCTGCAGACCCATTTTGCTTTTGAAACACTGCTGATTCGGAGTCACCTAGTGCAG | 9790 fluorescence intensity (a.u.) |
| GCCTCATCTTTTCATTTATTCTTATGCTTATCAACCAAAACGGAGTCACCTAGTGCAG | 16100 fluorescence intensity (a.u.) |

Next results follow:

Sequence	binding signal
CCCCGCGTCCACTTCTCCACTCCCACCACCACCATGCAACCGGAGTCACCTAGTGCAG	8450 fluorescence intensity (a.u.)
GTGCCGCTTGCGTCGCGCTCGCCGGCCCCGCTCTCGTCGCCGGAGTCACCTAGTGCAG	8150 fluorescence intensity (a.u.)
ATTTGAGTTCAATTTTTCTATGGTTGGTTCTTGTGTGTTCCGGAGTCACCTAGTGCAG	13700 fluorescence intensity (a.u.)
ATTCTTTTCCTATCATTTGATTCATTGTTAAATATATTTTCGGAGTCACCTAGTGCAG	9910 fluorescence intensity (a.u.)
CTCGTCACTGTCTTGTACTCCCTCCGTTTCAAAATATTTGCGGAGTCACCTAGTGCAG	12800 fluorescence intensity (a.u.)
GTAGTAGTGATATAGTTTCTCTCTTCTCACAAGCAGCTCACGGAGTCACCTAGTGCAG	8850 fluorescence intensity (a.u.)
TTTTTTCTGTAAGGTGTCATATTTCTTCAATTGATGGATACGGAGTCACCTAGTGCAG	8340 fluorescence intensity (a.u.)
AGCATCCACACGTGCGTTTCTTTTCTTTTCTTTCCGGCCGCGGAGTCACCTAGTGCAG	8060 fluorescence intensity (a.u.)
TAGTTTCTAAGTTTTTCTTCAAACTTCCAACTTTTTTATCCGGAGTCACCTAGTGCAG	8630 fluorescence intensity (a.u.)
GATCTCATCCCGTCCCGTCATCTGCTTCCTCTCTCGGAACCGGAGTCACCTAGTGCAG	16900 fluorescence intensity (a.u.)
ACTCCGCCCTGTCCATGATGCTCTACCTCCGTATTGCTAACGGAGTCACCTAGTGCAG	8080 fluorescence intensity (a.u.)
CCACCGGCCGATCTCCTCTTCCACAGCCCTACATCCCAAACGGAGTCACCTAGTGCAG	8350 fluorescence intensity (a.u.)
AGTTCCCGTAGTATCTAAACTGCACTCCACCGCACATAGACGGAGTCACCTAGTGCAG	8770 fluorescence intensity (a.u.)
ATCGCCGTCGCCGTCGCCTTCGCCTTCGCCTTCGTCGAGCCGGAGTCACCTAGTGCAG	8830 fluorescence intensity (a.u.)
CACTTAACTAGTCAACGCTTTTGACAGCGGCGTTCTTCATCGGAGTCACCTAGTGCAG	10000 fluorescence intensity (a.u.)
ATACATATGCACTCCATCCCTTCAATTGTAATCCAAGATACGGAGTCACCTAGTGCAG	8380 fluorescence intensity (a.u.)
GTAAAATATCGAGTTCGCACATCTTGTTGTCTGATTATTGCGGAGTCACCTAGTGCAG	10800 fluorescence intensity (a.u.)
TGAGGTGGTGTTCTTGCTGTTCTTGTTATTTTTTTCTTTTCGGAGTCACCTAGTGCAG	15600 fluorescence intensity (a.u.)
CAGCCTTATATTTGATCCCTATCCAGGCATTCACCAGCATCGGAGTCACCTAGTGCAG	8330 fluorescence intensity (a.u.)
CTCCACACTGCCTCGCCAACCAACCACCGCTACACACGAGCGGAGTCACCTAGTGCAG	8690 fluorescence intensity (a.u.)
GGGGCGCCGGGAAGGAGGGCGCTGTGTGGGAGGGAGGGAGCGGAGTCACCTAGTGCAG	17100 fluorescence intensity (a.u.)
